For four substances, binding results are on record in article PMC10238270.

Protein sequences, listed by entry. Tags and fused reporters are not part of them. Lines headed by an entry give the natural chain unless they say otherwise; changes in a name come on top. Residues count along the entry.
UniProt Q93009: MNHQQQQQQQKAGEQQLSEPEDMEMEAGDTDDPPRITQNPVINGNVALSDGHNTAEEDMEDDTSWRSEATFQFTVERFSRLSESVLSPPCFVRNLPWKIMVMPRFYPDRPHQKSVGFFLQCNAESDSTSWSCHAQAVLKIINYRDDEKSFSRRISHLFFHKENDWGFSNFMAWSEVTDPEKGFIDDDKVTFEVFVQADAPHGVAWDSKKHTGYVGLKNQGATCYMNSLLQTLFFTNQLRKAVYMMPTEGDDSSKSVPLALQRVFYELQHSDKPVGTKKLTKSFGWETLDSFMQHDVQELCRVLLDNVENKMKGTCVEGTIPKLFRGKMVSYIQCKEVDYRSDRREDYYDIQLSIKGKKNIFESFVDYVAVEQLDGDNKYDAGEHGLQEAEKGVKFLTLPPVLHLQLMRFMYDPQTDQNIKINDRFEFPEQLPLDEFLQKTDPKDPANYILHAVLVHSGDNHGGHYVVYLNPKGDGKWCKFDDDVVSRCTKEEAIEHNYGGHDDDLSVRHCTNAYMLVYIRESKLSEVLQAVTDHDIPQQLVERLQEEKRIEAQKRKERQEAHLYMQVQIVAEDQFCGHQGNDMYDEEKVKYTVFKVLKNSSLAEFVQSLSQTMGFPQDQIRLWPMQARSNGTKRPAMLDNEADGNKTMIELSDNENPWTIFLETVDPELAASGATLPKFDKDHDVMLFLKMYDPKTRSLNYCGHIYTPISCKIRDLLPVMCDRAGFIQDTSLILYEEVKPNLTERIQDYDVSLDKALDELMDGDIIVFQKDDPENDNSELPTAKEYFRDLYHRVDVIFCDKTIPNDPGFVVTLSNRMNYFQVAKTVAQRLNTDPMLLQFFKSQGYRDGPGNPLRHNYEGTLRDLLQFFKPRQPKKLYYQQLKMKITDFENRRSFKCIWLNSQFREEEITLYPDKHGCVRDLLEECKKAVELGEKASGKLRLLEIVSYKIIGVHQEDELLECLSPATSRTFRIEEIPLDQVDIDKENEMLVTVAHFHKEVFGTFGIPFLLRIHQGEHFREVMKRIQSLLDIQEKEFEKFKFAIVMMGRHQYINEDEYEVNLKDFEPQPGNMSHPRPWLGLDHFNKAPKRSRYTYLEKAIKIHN
UniProt Q9Y3Z3: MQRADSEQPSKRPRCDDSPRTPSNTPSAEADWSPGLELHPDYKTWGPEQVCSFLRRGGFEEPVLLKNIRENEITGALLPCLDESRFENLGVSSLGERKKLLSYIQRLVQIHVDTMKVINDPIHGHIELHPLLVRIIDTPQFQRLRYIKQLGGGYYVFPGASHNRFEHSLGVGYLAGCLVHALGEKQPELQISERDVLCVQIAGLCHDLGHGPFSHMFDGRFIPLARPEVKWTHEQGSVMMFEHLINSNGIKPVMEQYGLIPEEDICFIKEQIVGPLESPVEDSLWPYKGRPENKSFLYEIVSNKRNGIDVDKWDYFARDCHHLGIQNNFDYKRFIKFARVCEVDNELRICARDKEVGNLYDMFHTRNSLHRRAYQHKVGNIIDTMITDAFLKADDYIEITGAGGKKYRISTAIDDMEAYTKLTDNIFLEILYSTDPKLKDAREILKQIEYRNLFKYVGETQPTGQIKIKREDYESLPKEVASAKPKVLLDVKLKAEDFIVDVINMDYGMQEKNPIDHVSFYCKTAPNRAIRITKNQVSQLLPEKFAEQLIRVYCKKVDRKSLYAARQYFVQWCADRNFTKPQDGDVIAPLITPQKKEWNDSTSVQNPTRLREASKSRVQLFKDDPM
HD domain of SAMHD1: residues 115-583 of Q9Y3Z3

These are yes or no findings as the source states them, for the method shown. Binding seen in cells or lysates may run through a third protein. Some entries that bind do so weakly or less than the wild type.

One test deals with GST-USP7 (human) (UniProt Q93009). Briefly: pull-down; bacterially expressed GST fusion on glutathione beads incubated with in vitro translated SAMHD1 or USP7; only the target purified.
The target in the next test is GST-SAMHD1 (human) (UniProt Q9Y3Z3). Described as above.
Test [1] concerns the target HD domain of SAMHD1 (human) (UniProt Q9Y3Z3). Described as above.
The target in test [2] is USP7 (human (endogenous in HCT116)) (UniProt Q93009). Put plainly: co-IP; cell lysates (HCT116; also Hela, HEK293, A549, TPC-1) in IP lysis buffer (25 mM Tris pH 7.6, 150 mM NaCl, 1% Nonidet P-40, 1 mM EDTA), antibody and protein A/G-Sepharose overnight at 4 °C, IgG control; also cells with or without cisplatin, doxorubicin or H2O2.
Test [3] addresses SAMHD1 (human (endogenous in HCT116)) (UniProt Q9Y3Z3). The description is as above.

For “Recombinant human SAMHD1 (from UniProt Q9Y3Z3 1-626)”, in the test with GST-USP7 (human), the binding entry is reported as “binds”.
As for “Recombinant human USP7 (from UniProt Q93009 1-1102) (enzyme)”, the binding result (in the test with GST-SAMHD1 (human); in test [1]) was “binds” each time.
For the substance SAMHD1 (from UniProt Q9Y3Z3 1-626), in test [2], the binding entry is “binds”.
As for “USP7 (from UniProt Q93009 1-1102) (enzyme)”, in test [3], the binding result is on record as “binds”.
